These are yes or no findings as the source states them, for the method shown. Some entries that bind do so weakly or less than the wild type.
B1: Clone No. 58 (designed binder)
chain: LPAPKNLVVSEVTEDSLRLSWFIFAIMFDSFLIQYQESEKVGEAINLTVPGSERSYDLTGLKPGTEYTVSIYGVLRLELRKPLSAEFTT
B2: Clone No. 59 (designed binder)
chain: LPAPKNLVVSEVTEDSLRLSWYYRIIEFDSFLIQYQESEKVGEAINLTVPGSERSYDLTGLKPGTEYTVSIYGVSMNLLSPPLSAEFTT
B3: Clone No. 60 (designed binder)
chain: LPAPKNLVVSEVTEDSLRLSWPNSAMFFDSFLIQYQESEKVGEAINLTVPGSERSYDLTGLKPGTEYTVSIYGVHSYGETLPLSAEFTT
B4: Clone No. 61 (designed binder)
chain: LPAPKNLVVSEVTEDSLRLSWYSILEAFDSFLIQYQESEKVGEAINLTVPGSERSYDLTGLKPGTEYTVSIYGVYCAPPMKPLSAEFTT
B5: Clone No. 62 (designed binder)
chain: LPAPKNLVVSEVTEDSLRLSWKVCTAYFDSFLIQYQESEKVGEAINLTVPGSERSYDLTGLKPGTEYTVSIYGVGMNSFSPPLSAEFTT
B6: Clone No. 63 (designed binder)
chain: LPAPKNLVVSEVTEDSLRLSWTEGKEGFDSFLIQYQESEKVGEAINLTVPGSERSYDLTGLKPGTEYTVSIYGVSPWLARRPLSAEFTT
B7: Clone No. 64 (designed binder)
chain: LPAPKNLVVSEVTEDSLRLSWMDIDHSFDSFLIQYQESEKVGEAINLTVPGSERSYDLTGLKPGTEYTVSIYGVSLGYTTKPLSAEFTT
B8: Clone No. 65 (designed binder)
chain: LPAPKNLVVSEVTEDSLRLSWGSMNEHFDSFLIQYQESEKVGEAINLTVPGSERSYDLTGLKPGTEYTVSIYGVENDKSPMPLSAEFTT
B9: Clone No. 66 (designed binder)
chain: LPAPKNLVVSEVTEDSLRLSWSFSHTVFDSFLIQYQESEKVGEAINLTVPGSERSYDLTGLKPGTEYTVSIYGVDESIPISPLSAEFTT
B10: Clone No. 67 (designed binder)
chain: LPAPKNLVVSEVTEDSLRLSWRMRTTEFDSFLIQYQESEKVGEAINLTVPGSERSYDLTGLKPGTEYTVSIYGVQSADVFTPLSAEFTT
B11: Clone No. 89 (designed binder)
chain: LPAPKNLVVSEVTEDSLRLSWLRWYSVFDSFLIQYQESEKVGEAINLTVPGSERSYDLTGLKPGTEYTVSIYGVSKFGVEGPLSAEFTT
B12: Clone No. 90 (designed binder)
chain: LPAPKNLVVSEVTEDSLRLSWLRWYSVFDFFLIQYQESEKVGEAINLTVPGSERSYDLTGLKPGTEYTVSIYGVTRFGVEQPLSAEFTT
B13: Clone No. 91 (designed binder)
chain: LPAPKNLVVSEVTEDSLRLSWGTSTRRFDSFLIQYQESEKVGEAINLIVPGSERSYDLTGLKPGTEYTVSIYGVTRFGVEQPLSAEFTT
B14: Clone No. 92 (designed binder)
chain: LPAPKNLVVSEVTEDSLRLSWNFANVMFDFFLIQYQESEKVGEAINLTVPGSERSYDLTGLKPGTEYTLSIYGVTRFGVEQPLSAEFTT
B15: Clone No. 93 (designed binder)
chain: LPAPKNLVVSEVTEDSLRLSWNFANVMFDFFLIQYQESEKVGEAINLTVPGSERSYDLTGLKPGTEYTVSIYGVTRFGVEQPLSAEFTT
B16: Clone No. 94 (designed binder)
chain: LPAPKNLVVSEVTEDSLRLSWWKVGSVFDSFLIQYQESEKVGEAINLTVPGSERSYDLTGLKPGTEYTVSIYGVLHHLTLHPLSAEFTT
B17: Clone No. 95 (designed binder)
chain: LPAPKNLVVSEVTEDSLRLSWKASGRKFDSFLIQYQESEKVGEAINLTVPGSERSYDLTGLKPGTEYTVSIYGVPSIASIIPLSAEFTT
B18: Clone No. 96 (designed binder)
chain: LPAPKNLVVSEVTEDSLRLSWLVLGAMFDSFLIQYQESEKVGEAINLTVPGSERSYDLTGLKPGTEYTVSIYGVKTPHSRKPLSAEFTT
B19: Clone No. 97 (designed binder)
chain: LPAPKNLVVSEVTEDSLRLSWGRTFDWFDSFLIQYQESEKVGEAIDLTVPGSERSYDLTGLKPGTEYTVSIYGVKGRRHTKPLSAEFTT
B20: Clone No. 98 (designed binder)
chain: LPAPKNLVVSEVTEDSLRLSWFYLNFEFDSFLIQYQESEKVGEAINLTVPGSERSYDLTGLKPGTEYTVSIYGVYRSKYTLPLSAEFTT
B21: Clone No. 99 (designed binder)
chain: LPAPKNLVVSEVTEDSLRLSWNFANVMFDFFLIQYQESEKVGEAINLTVPGSERSYDLTGLKPGTEYTVSIYGVMGTHLTLPLSAEFTT

Chains of the proteins cited; added tags and fusions are not shown. Residues count along the entry.
UniProt P01375, residues 77-233: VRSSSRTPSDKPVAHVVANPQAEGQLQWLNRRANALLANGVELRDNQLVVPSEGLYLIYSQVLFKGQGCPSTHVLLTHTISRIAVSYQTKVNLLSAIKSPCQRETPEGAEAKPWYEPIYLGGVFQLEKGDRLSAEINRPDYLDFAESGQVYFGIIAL

Biological target: T1, recombinant TNFα, biotinylated (human, UniProt P01375 77-233, biotinylated using sulfo-NHS-LC-Biotin (sites not given))
T1 construct: human is stated in the abstract and claims; also called biotinylated TNFα; human TNFα
Assay: ELISA of lysates on biotinylated TNFα on streptavidin plate
Description: Maxisorp plates (Nunc) were coated with 0.5 μg of streptavidin, washed with TBST, and bound to 100 ng of biotinylated TNFα or 200 ng of biotinylated human serum albumin before being blocked with Starting Block (Thermo Scientific). Clarified lysates diluted 1:1 in Starting Block were added to the plates and allowed to bind for 1 hour before being washed with TBST. Detection of bound Tencon was accomplished using an anti-HIS-HRP antibody (Qiagen).

binding, binds:
B1
B2
B3
B4
B5
B6
B7
B8
B9
B10
B11
B12
B13
B14
B15
B16
B17
B18
B19
B20
B21
